A short description of series [1]: general procedure: Boc solid-phase peptide synthesis; BHA resin; dicyclohexylcarbodiimide (DCC); symmetric anhydride procedure. The note with it: whole synthesis.
A short description of series [2]: general procedure: Boc solid-phase peptide synthesis; benzhydrylamine (BHA) resin, methylbenzhydrylamine (MBHA) resin, benzyl ester resin; dicyclohexylcarbodiimide (DCC); symmetric anhydride procedure. As to conditions: whole synthesis.
Series [3] can be described thus: general procedure: Boc solid-phase peptide synthesis; Boc-Arg(Tos)-resin (Bachem); dicyclohexylcarbodiimide (DCC); symmetric anhydride procedure. The note with it: whole synthesis, scale 0.13 mmol.

With [Leu^15 ]hGRF(1-29)-NH2, the crude mass in series [1] (scale 0.28 mmol) was found to be 536 mg.
In series [2] (on 200 mg crude portion), “[desNH2 -Tyr^1,D-Ala^2,Ala^15 ]hGRF(1-29)-NH2” came in with an isolated yield of 9%.
For [desNH2 Tyr^1,Ala^15 ]hGRF(1-29)-NH2, the isolated yield in series [2] (on 200 mg crude portion) amounted to 5% yield.
On to [D-Ala^2, Ala^15 ]hGRF(1-29)-NH2, for which the crude mass in series [1] (scale 0.16 mmol) turned out to be 575 mg.
In the case of [desNH2 Tyr^1 ]hGRF(1-29)-NH2, in series [2] (on 120 mg crude portion), the isolated yield worked out at 30% yield. For the same substance, in series [2] (scale 0.13 mmol), the crude mass is 0.79 g.
Turning to [Ala^15 ]-hGRF(1-29)-NH2, in series [1] (scale 0.30 mmol), the crude mass came out at 1010 mg, the isolated mass is recorded as 71.3 mg and the isolated yield turned out to be 7.05%.
[Val^15 ]-hGRF(1-29)-NH2: the crude mass in series [1] (scale 0.28 mmol) is reported as 625 mg.
For the substance [Ala^15 ]hGRF(1-29)-OH, the crude mass in series [3] is reported as 262 mg.

The values above are taken from patent US4649131A (Hoffmann-La Roche Inc., priority 1985, dated 1987).
